The values that follow come from PubChem BioAssay AID488840 (Broad Institute, 2010).

By UniProt entry, the sequences of proteins in these tests, tags left out. Where a name states a change or a piece, a line headed by the entry shows the natural chain unless it says otherwise.
UniProt O75164: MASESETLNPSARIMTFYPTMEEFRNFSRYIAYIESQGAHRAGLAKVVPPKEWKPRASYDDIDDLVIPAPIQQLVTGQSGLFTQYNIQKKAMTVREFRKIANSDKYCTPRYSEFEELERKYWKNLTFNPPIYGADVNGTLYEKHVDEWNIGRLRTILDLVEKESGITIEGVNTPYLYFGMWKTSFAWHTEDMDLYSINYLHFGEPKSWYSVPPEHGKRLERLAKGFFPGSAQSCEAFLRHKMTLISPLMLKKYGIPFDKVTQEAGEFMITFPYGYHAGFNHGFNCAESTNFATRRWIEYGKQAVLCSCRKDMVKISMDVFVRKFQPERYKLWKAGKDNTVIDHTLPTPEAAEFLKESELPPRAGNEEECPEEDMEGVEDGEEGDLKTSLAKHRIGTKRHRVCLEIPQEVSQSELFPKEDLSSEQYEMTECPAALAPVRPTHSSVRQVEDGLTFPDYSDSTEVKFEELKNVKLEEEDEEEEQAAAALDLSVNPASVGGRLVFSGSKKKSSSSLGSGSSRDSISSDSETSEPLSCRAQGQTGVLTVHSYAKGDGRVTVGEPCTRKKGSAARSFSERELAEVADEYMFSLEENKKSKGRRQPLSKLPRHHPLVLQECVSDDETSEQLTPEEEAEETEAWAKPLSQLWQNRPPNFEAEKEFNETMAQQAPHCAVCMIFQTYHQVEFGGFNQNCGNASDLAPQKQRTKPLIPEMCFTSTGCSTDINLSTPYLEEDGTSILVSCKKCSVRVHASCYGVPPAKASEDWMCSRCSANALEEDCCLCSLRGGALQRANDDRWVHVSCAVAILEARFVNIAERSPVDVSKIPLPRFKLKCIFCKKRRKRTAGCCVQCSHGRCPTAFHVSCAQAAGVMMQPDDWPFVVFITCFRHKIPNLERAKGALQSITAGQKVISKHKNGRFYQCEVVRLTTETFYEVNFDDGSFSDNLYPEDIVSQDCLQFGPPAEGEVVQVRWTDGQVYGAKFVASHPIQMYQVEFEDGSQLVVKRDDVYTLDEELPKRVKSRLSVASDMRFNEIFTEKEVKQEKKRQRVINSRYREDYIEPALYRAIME

About 45 (3%) of roughly 1,400 compounds were called active.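 How the source made its calls: active means half-maximal dose of signal decrease from fit no higher than ten times the top valid tested dose; inconclusive means fit invalid, or curve flat with 30 to 70% inhibition; inactive means the rest.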 This is one part of the list. Entries with a potency or affinity are not part of this list.

This experiment has as its target Lysine-specific demethylase 4A (Homo sapiens) (UniProt O75164). Briefly: inhibition of JMJD2A H3K9me3 demethylation – biochemical, DELFIA europium, cherry-picked samples, selectivity assay for GASC-1 inhibitor project, dose response (AID 488840).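 Further: europium signal reports the dimethyl H3K9 product detected by antibody so inhibitors lower it; 0% = median of neutral control wells and -100% = median of positive control wells.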 As to conditions: GST-JMJD2A(1-420) H3K9me3 demethylation; at 6 µM (top of the series) unless noted.
Turning to `O=C(Nc1ccccc1)Nc1ccc(S(=O)(=O)N2CCCCC2)cc1`, the activity change, negative = inhibition was inactive: 0.678%.

Take `Cc1cnc(NC(=O)c2ccc(-c3nc4ccccc4s3)o2)s1`: the activity change, negative = inhibition was inactive: 1.03%. Regarding `O=C(O)c1ccccc1OCCOc1ccccc1C(=O)O`, the activity change, negative = inhibition was inactive: -3.99%. Consider `CCC/C(=N\NC(=O)c1csc(C)c1C)c1cccs1`, for which the activity change, negative = inhibition is inactive: 7.79%. As to `COc1ccc(CCNC(=O)COC(=O)c2ccc(Br)o2)cc1`, the activity change, negative = inhibition is inactive: -0.655%.

Take `Cc1cccc2cc(C#N)c(SCCN3CCCCC3)nc12`: the activity change, negative = inhibition is inactive: -1.34%. The result for `OC(COc1ccc2ccccc2c1Br)Cn1cnc(-c2ccccc2)c1` (stereo not drawn) reads inactive: -1.19%. As for `CCN(C[C@H]1N[C@@](C)(C(=O)OC)[C@H]2C(=O)N(Cc3ccccc3)C(=O)[C@@H]12)C(=O)Nc1ccc(F)cc1`, the activity change, negative = inhibition was inactive: 7.96%. For `O=C(N1CCN(c2ccccc2)CC1)C12CC3CC(CC(C3)C1)C2`, the activity change, negative = inhibition was inactive: -4.71%. Consider `C[C@H](N)c1nnc(SCC(=O)N(C)C)o1`, for which the activity change, negative = inhibition is inactive: -0.346%. On to `CC(OC(=O)CN1C(=O)COc2ccccc21)C(=O)NCc1ccc(F)cc1` (stereo not drawn), for which the activity change, negative = inhibition was inactive: 2.45%.

Take `N#CC1(NC(=O)Cn2ncc(Cl)c(Cl)c2=O)CCCCC1`: the activity change, negative = inhibition was inactive: 0.808%. Regarding `CCc1ccc(NC(=O)CSc2nnc(CNC(=O)c3c(F)cccc3Cl)o2)cc1`, the activity change, negative = inhibition is inactive: 7.33%. On to `COc1ccc2c(c1)OC[C@H]1[C@H]2N2C(=O)CNC(=O)[C@@]2(C)[C@H]1c1ccccc1`, for which the activity change, negative = inhibition is inactive: 0.491%. On to `C[C@@H]1CN([C@@H](C)CO)C(=O)c2cc(NC(=O)Nc3ccc4c(c3)OCO4)ccc2O[C@H]1CN(C)S(=O)(=O)c1ccc(F)cc1`, for which the activity change, negative = inhibition is inactive: -2.55%.

On to `CCOC(=O)CCCCCC(=O)Nc1ccc2c(c1)CC(=O)N([C@H](C)CO)C[C@@H](C)[C@H](CN(C)Cc1ccc3c(c1)OCO3)O2`, for which the activity change, negative = inhibition was inactive: 2.36%. For `Cc1cc(C)c(OCC(=O)Nc2ccc(NC(=O)c3ccco3)cc2)c([N+](=O)[O-])c1`, the activity change, negative = inhibition was inactive: 0.0706%. As to `CCCc1nn2c(=O)cc(CSCC(=O)Nc3ccccc3)nc2s1`, the activity change, negative = inhibition was inactive: -2.93%. With `Cc1ccccc1NS(=O)(=O)c1ccc(C(=O)NCC(c2ccco2)N(C)C)cc1` (stereo not drawn), the activity change, negative = inhibition is inactive: -1.49%.

`O=[N+]([O-])c1cc(Cl)ccc1Nc1ccccc1`: the activity change, negative = inhibition was inactive: -4.84%. Consider `O=C1c2ccccc2C(=O)N1CCC(c1ccccc1)c1ccco1` (stereo not drawn), for which the activity change, negative = inhibition was inactive: -4.09%.

With `Cc1ccc([N+](=O)[O-])cc1N=C(c1cccc([N+](=O)[O-])c1)N1CCOCC1`, the activity change, negative = inhibition is inactive: -0.442%. Take `COC(=O)c1cc(OC)c(OC)cc1NC(=O)Cn1nnc(-c2ccccc2Cl)n1`: the activity change, negative = inhibition is inactive: -4.43%. Turning to `CCCOC(=O)c1ccc(-c2ccc(C=O)o2)cc1`, the activity change, negative = inhibition was inactive: -1.74%. Then `CS(=O)(=O)N(CCc1ccccc1)CC(=O)NCc1ccc(Cl)cc1`, with inactive: 1.47%. As for `C[C@H](CO)N1C[C@H](C)[C@H](CN(C)S(=O)(=O)c2ccccc2)Oc2c(NS(C)(=O)=O)cccc2C1=O`, the activity change, negative = inhibition was inactive: 2.61%. Take `Cc1ccc(S(=O)(=O)NC(=O)NC(C)Cc2ccccc2)cc1` (stereo not drawn): the activity change, negative = inhibition is inactive: -0.228%. For the compound `CCN(Cc1nc(-c2ccccc2)no1)C(=O)c1ccco1`, the activity change, negative = inhibition is inactive: -0.912%. The result for `O=c1cc(-c2ccc(O)c(O)c2)oc2c(C3O[C@H](CO)[C@@H](O)[C@H](O)[C@H]3O)c(O)cc(O)c12` (stereo partly drawn) reads inactive: -24%; that for `O=C(CSc1nc(O)c(Cc2ccccc2)c(=O)[nH]1)c1ccccc1`, inactive: 0.275%. Consider `COC(=O)c1c(-c2cccs2)csc1NC(=O)CN1CCOCC1`, for which the activity change, negative = inhibition was inactive: 7.8%. Turning to `CN(C)CCNC(=O)c1onc(CSc2ccncc2)c1C(=O)NCCN(C)C`, the activity change, negative = inhibition was inactive: -1.39%. As to `NC(=O)COC(=O)Cc1coc2cc3c(cc12)CCC3`, the activity change, negative = inhibition is inactive: -1.46%. As to `CC1CN(Cc2ccccc2)c2nc3c(c(=O)n(C)c(=O)n3C)n2C1` (stereo not drawn), the activity change, negative = inhibition was inactive: -0.543%. For `COc1cc2cnncc2cc1OC`, the activity change, negative = inhibition is inactive: 1.52%. The result for `C[C@H](CO)N1C[C@H](C)[C@@H](CN(C)CC2CCCCC2)Oc2c(NC(=O)C3CC3)cccc2C1=O` reads inactive: 0.973%; that for `O=C(N/N=C/c1ccccc1)c1c(O)c2ccccc2[nH]c1=O`, inactive: -1.81%; that for `COc1cc(CN2CCN(C(=O)CC(C)C)CC2)cc(OC)c1OC`, inactive: 3%.

As for `COc1ccc(NC(=O)C2OC3OC(C)(C)OC3C3OC(C)(C)OC23)cc1` (stereo not drawn), the activity change, negative = inhibition was inactive: 3.01%.

As for `COc1ccc2c(c1)CC(C1(O)C(=O)N(C)c3ccccc31)C2=O` (stereo not drawn), the activity change, negative = inhibition is inactive: 3.41%. As for `COc1ccc(N2CCN(C(=O)CSc3nnc(-c4ccco4)n3C)CC2)cc1`, the activity change, negative = inhibition is inactive: 3.12%. Take `Cc1ccc(C(O)(C(=O)NNc2ccccn2)c2ccc(C)cc2)cc1`: the activity change, negative = inhibition was inactive: -2.22%. Consider `COc1ccc(N=c2ssnc2Cl)cc1`, for which the activity change, negative = inhibition was inactive: -4.28%.

Turning to `CC(=O)N1C(c2ccccc2O)C[C@]2(C)CC(=O)NC12` (stereo partly drawn), the activity change, negative = inhibition is inactive: 1.27%. Then `CC(SCc1ccccc1)C(=O)Nc1ccccc1` (stereo not drawn), with inactive: 0.0984%; and `C/C(=N\N1CCN(c2ccccc2)CC1)c1ccncc1`, with inactive: -3.29%; and `CC1=C(C(=O)OCC2CCCO2)C(c2ccccc2OC(C)C)C2=C(CC(c3ccco3)CC2=O)N1` (stereo not drawn), with inactive: 3.65%.

`Cc1ccc(S(=O)(=O)N2[C@@H](c3ccc(Br)cc3)C(C(=O)O)=CC[C@H]2c2cccc(Cl)c2)cc1`: the activity change, negative = inhibition was inactive: 4.46%. Regarding `CN1CCN(c2ccc([N+](=O)[O-])cc2C(=O)N2CCOCC2)CC1`, the activity change, negative = inhibition was inactive: 6.45%.

As to `CCN(CC)c1ccc(C(=O)OCC(=O)N2CCCC2)cc1`, the activity change, negative = inhibition was inactive: 1.81%. Regarding `C/C(CC(=O)Nc1cccc(Cl)c1Cl)=N\NC(=O)c1ccccc1N`, the activity change, negative = inhibition was inactive: 0.587%.

Consider `O=C(C1CCCCC1)N1CCC(c2nc3c(nnn3Cc3c(F)cccc3Cl)c(=O)[nH]2)CC1`, for which the activity change, negative = inhibition was inactive: 2.48%. Regarding `C[C@@H]1CN([C@H](C)CO)C(=O)c2cc(NC(=O)Cc3ccccc3)ccc2O[C@H]1CN(C)Cc1ccc(Oc2ccccc2)cc1`, the activity change, negative = inhibition was inactive: 14.2%. The result for `COc1cc(N)c(C(O)c2nccc3cc(OC)c(OC)cc23)cc1OC` (stereo not drawn) reads inactive: 5.45%; that for `COc1ccc(/C=N/Nc2ncnc(Cl)c2N)cc1OC`, inactive: -0.617%. Take `O=C(c1cc2c(s1)CCC2)N1C(=O)c2ccccc2S1(=O)=O`: the activity change, negative = inhibition was inactive: -5.3%. For the compound `Cc1nc2ccc(NC(=O)c3oc4ccc(F)cc4c3C)cc2s1`, the activity change, negative = inhibition was inactive: 0.204%.

Regarding `CCC(C)[C@H](NC(=O)NCc1ccccc1Cl)C(=O)O` (stereo partly drawn), the activity change, negative = inhibition was inactive: 1.47%. The result for `O=C(Nc1nnc(-c2cc(Cl)ccc2Cl)o1)c1ccco1` reads inactive: -0.944%. Take `Cc1ccccc1N=C1N=C(N)c2ccccc21`: the activity change, negative = inhibition was inactive: 4.31%. For the compound `CN(C)/C=N/c1sccc1C(N)=O`, the activity change, negative = inhibition is inactive: -0.776%. The result for `Cc1nnc(SCc2nnc(-c3ccccc3)o2)n(N)c1=O` reads inactive: -3.23%; that for `Cc1noc(C)c1COc1ccc(C(=O)NCC2CCCO2)cc1` (stereo not drawn), inactive: -4.92%.

Consider `Cc1cccc(C(=O)NCC(c2ccco2)N2CCc3ccccc32)c1` (stereo not drawn), for which the activity change, negative = inhibition was inactive: -2.87%. For `O=C(CSc1ncccn1)NCc1ccc(F)cc1`, the activity change, negative = inhibition is inactive: 4.06%.

In the case of `CCO[C@@H]1OC(C(=O)NC2CC2)=C[C@H](c2c[nH]c3ccccc23)[C@H]1CCCO`, the activity change, negative = inhibition is inactive: -1.12%. In the case of `CCOc1ccc(NC(=O)NC(=O)N(C(C)C)S(C)(=O)=O)cc1`, the activity change, negative = inhibition is inactive: 0.117%. As to `CCn1c(=O)c(C(=O)NCCc2ccc(Cl)cc2)c(O)c2ccccc21`, the activity change, negative = inhibition was inactive: 7.09%.

With `CCCCC(=O)Nc1ccccc1N1CCN(c2ccc(F)cc2)CC1`, the activity change, negative = inhibition was inactive: -3.84%. Turning to `O=C(Nc1ccccc1N1CCCCC1)c1cccc(F)c1`, the activity change, negative = inhibition is inactive: -2.14%. Turning to `CCn1c(SCC(=O)c2ccc(C)cc2)nnc1-c1ccoc1C`, the activity change, negative = inhibition was inactive: 2.33%. As for `CN(C)CCN(C(=O)/C=C/c1cccs1)c1nc2ccc(F)cc2s1`, the activity change, negative = inhibition is inactive: -0.0863%. With `O=C(CSc1nc2ccccc2c(=O)n1Cc1ccc(C(=O)NC2CC2)cc1)NCc1ccco1`, the activity change, negative = inhibition is inactive: 1.04%. Turning to `Cc1cccc(N2C(=O)C3C4C=CC(C4)C3C2=O)c1` (stereo not drawn), the activity change, negative = inhibition was inactive: -2.32%.

Take `COc1ccc(NC(=O)C2CCCCN2N)cc1OCC(C)C` (stereo not drawn): the activity change, negative = inhibition is inactive: 5.12%. Turning to `COc1ccccc1CNC(=O)c1cc(-c2ccccc2)nn1CC1CC(c2cccnc2)=NO1` (stereo not drawn), the activity change, negative = inhibition is inactive: 1.44%.

On to `CC(=O)Nc1ccc2nc(CN3CCC(CO)(CCc4ccccc4)CC3)ccc2c1`, for which the activity change, negative = inhibition is inactive: 1.69%. As for `COc1ccc(-c2nc(C#N)c(NCc3ccc(F)cc3)o2)cc1OC`, the activity change, negative = inhibition was inactive: 3.44%. With `C[C@H](CO)N1C[C@H](C)[C@@H](CN(C)C(=O)Nc2ccc(C(F)(F)F)cc2)Oc2c(NC(=O)Nc3ccc4c(c3)OCO4)cccc2C1=O`, the activity change, negative = inhibition is inactive: -0.395%. For the compound `CC[C@@]1(C(=O)OC)N[C@H](CN(C)C(=O)Nc2ccc(Cl)cc2)[C@@H]2C(=O)N(Cc3ccccc3)C(=O)[C@@H]21`, the activity change, negative = inhibition is inactive: 3.72%. Regarding `O=C(Cn1cnc2c(OCc3ccccc3)ncnc21)NCCN1CCOCC1`, the activity change, negative = inhibition was inactive: 0.142%.

Consider `CN(C)/C=C1\C(=O)NN=C1c1ccccc1`, for which the activity change, negative = inhibition was inactive: 0.566%. For `COc1ccc2[nH]c(=O)c(CN(CCCN(C)C)C(=O)Nc3ccc(F)cc3)cc2c1`, the activity change, negative = inhibition was inactive: -1.96%. `CCC(=O)Nc1ccc(NC(=O)Cc2ccccc2)cn1`: the activity change, negative = inhibition is inactive: 1.05%. Then `Cc1cc(C(F)(F)F)nn1C(=O)c1cccnc1Cl`, with inactive: -3.32%; and `Nc1c(C(=O)OCC(=O)Nc2ccc(Cl)cc2[N+](=O)[O-])[nH]c(=O)[nH]c1=O`, with inactive: -1.24%; and `COc1ccc(S(=O)(=O)N(C)C[C@H]2Oc3ccc(NS(=O)(=O)c4cccs4)cc3CC(=O)N([C@H](C)CO)C[C@H]2C)cc1`, with inactive: 4.03%. `COCCn1c(N)c(C(=O)NCC2CCCO2)c2nc3ccccc3nc21` (stereo not drawn): the activity change, negative = inhibition was inactive: 5.88%.
